Data as given in PMC12817906, “SVCV phosphoprotein hijacks phase separation to immobilize the IRF3-TBK1 signaling axis and suppress interferon antiviral immunity” (Journal of Virology, 2025).
These are yes or no findings as the source states them, for the method shown. Binding seen in cells or lysates may run through a third protein. Sequences can lack the tags named with a protein.

Molecular target: T1, Myc-tagged SVCV phosphoprotein (SVCV-P) (spring viremia of carp virus (SVCV)) (UniProt Q91DS2)
T1 sequence: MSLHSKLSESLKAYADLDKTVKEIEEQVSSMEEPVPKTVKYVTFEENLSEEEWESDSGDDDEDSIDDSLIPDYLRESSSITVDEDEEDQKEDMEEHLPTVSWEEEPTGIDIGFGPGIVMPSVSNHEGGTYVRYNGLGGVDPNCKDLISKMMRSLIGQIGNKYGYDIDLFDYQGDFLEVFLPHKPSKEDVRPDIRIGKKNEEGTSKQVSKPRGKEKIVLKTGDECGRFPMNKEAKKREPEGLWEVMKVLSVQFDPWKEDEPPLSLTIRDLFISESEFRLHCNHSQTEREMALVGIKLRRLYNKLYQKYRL
Assay: co-IP; HEK293T cells co-transfected with the two tagged plasmids; lysate incubated with tag antibody overnight at 4°C, protein A-agarose beads, Western blot; in Fig. 4G cells treated with 1,6-HEX before lysis

Flag-tagged zebrafish IRF3
binding: no binding
